The results in this text go back to paper PMC8773821.

By UniProt entry, the sequences of proteins in these tests, tags left out.
UniProt P19474: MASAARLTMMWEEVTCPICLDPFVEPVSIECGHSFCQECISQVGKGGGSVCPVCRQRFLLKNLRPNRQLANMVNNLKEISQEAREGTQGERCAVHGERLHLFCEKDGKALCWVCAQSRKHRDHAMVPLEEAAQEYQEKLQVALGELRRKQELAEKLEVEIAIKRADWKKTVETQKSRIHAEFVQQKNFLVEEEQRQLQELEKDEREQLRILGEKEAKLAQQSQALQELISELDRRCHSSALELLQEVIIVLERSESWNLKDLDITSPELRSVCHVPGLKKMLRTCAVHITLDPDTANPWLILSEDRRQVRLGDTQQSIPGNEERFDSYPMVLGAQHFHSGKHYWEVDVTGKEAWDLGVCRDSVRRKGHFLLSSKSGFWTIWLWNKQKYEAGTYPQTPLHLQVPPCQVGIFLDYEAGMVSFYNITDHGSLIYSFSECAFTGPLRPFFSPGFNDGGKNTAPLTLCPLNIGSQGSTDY

Results are given in words; binding and its absence hold for the method and conditions named. Binding seen in cells or lysates may run through a third protein. Some entries that bind do so weakly or less than the wild type. For some assays here: Sequences can lack the tags named with a protein.

The target in experiment [1] is tripartite motif containing 21 (TRIM21), full-length (human) (UniProt P19474). The experiment is described as follows: co-IP; HEK 293T cells cotransfected with PXR and TRIM21 for 48 h; whole-cell lysates in RIPA with PMSF; precipitated on agarose beads with anti-Flag (the legend says PXR antibody), anti-TRIM21 or IgG; blotted with anti-PXR or anti-TRIM21.
Experiment [2] addresses T1, pregnane X receptor (PXR), endogenous in HepG2 cells (human (endogenous in HepG2)) (UniProt O75469).
T1 sequence: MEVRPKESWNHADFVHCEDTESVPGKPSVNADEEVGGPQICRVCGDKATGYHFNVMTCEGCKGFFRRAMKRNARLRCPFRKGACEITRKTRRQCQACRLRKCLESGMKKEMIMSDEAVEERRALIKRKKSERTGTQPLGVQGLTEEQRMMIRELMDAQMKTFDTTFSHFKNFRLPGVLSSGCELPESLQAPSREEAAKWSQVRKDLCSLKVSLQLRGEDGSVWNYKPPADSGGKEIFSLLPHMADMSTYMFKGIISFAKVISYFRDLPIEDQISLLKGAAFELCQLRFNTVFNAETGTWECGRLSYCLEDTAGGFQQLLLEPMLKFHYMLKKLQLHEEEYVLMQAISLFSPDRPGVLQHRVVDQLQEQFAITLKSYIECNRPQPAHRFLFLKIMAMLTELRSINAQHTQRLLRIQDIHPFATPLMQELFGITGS
The experiment is described as follows: co-IP; endogenous proteins in HepG2 lysates; cells treated with kenpaullone (5 uM) or dinaciclib (4 uM) for 24 h or left untreated; precipitated with anti-PXR, anti-Hsp90 or anti-DNAJC7 antibody; blotted with the same three antibodies.

B1: pregnane X receptor (PXR), full-length, from the plasmid pcDNA3.1-EGFP-PXR-Flag (protein, UniProt O75469 1-434)
chain: MEVRPKESWNHADFVHCEDTESVPGKPSVNADEEVGGPQICRVCGDKATGYHFNVMTCEGCKGFFRRAMKRNARLRCPFRKGACEITRKTRRQCQACRLRKCLESGMKKEMIMSDEAVEERRALIKRKKSERTGTQPLGVQGLTEEQRMMIRELMDAQMKTFDTTFSHFKNFRLPGVLSSGCELPESLQAPSREEAAKWSQVRKDLCSLKVSLQLRGEDGSVWNYKPPADSGGKEIFSLLPHMADMSTYMFKGIISFAKVISYFRDLPIEDQISLLKGAAFELCQLRFNTVFNAETGTWECGRLSYCLEDTAGGFQQLLLEPMLKFHYMLKKLQLHEEEYVLMQAISLFSPDRPGVLQHRVVDQLQEQFAITLKSYIECNRPQPAHRFLFLKIMAMLTELRSINAQHTQRLLRIQDIHPFATPLMQELFGITGS
Turning to B1, the binding entry in experiment [1] is “binds”.

B2: cytoplasmic CAR retention protein (DNAJC7), endogenous in HepG2 cells (protein, UniProt Q99615 1-494)
chain: MAAAAECDVVMAATEPELLDDQEAKREAETFKEQGNAYYAKKDYNEAYNYYTKAIDMCPKNASYYGNRAATLMMLGRFREALGDAQQSVRLDDSFVRGHLREGKCHLSLGNAMAACRSFQRALELDHKNAQAQQEFKNANAVMEYEKIAETDFEKRDFRKVVFCMDRALEFAPACHRFKILKAECLAMLGRYPEAQSVASDILRMDSTNADALYVRGLCLYYEDCIEKAVQFFVQALRMAPDHEKACIACRNAKALKAKKEDGNKAFKEGNYKLAYELYTEALGIDPNNIKTNAKLYCNRGTVNSKLRKLDDAIEDCTNAVKLDDTYIKAYLRRAQCYMDTEQYEEAVRDYEKVYQTEKTKEHKQLLKNAQLELKKSKRKDYYKILGVDKNASEDEIKKAYRKRALMHHPDRHSGASAEVQKEEEKKFKEVGEAFTILSDPKKKTRYDSGQDLDEEGMNMGDFDPNNIFKAFFGGPGGFSFEASGPGNFFFQFG
Turning to B2, the binding entry in experiment [2] is reported as “binds”.
